Assay results reported in article PMC11618752.

Sequences of proteins named here, by UniProt entry; tags and fusion partners are left off.
UniProt Q9BRJ7: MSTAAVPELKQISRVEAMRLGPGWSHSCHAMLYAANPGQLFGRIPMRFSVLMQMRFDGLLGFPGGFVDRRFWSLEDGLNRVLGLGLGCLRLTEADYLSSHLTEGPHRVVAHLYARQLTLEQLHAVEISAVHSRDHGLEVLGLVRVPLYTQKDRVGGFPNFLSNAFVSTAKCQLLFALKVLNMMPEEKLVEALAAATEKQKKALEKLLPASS

Target: Flag-tagged wild-type TIRR (UniProt Q9BRJ7)
Assay: affinity purification with mass spectrometry; 293T cells transfected with Flag-TIRR, with or without IR (4 Gy); lysed in IP buffer, Flag-conjugated agarose beads, eluted with 2% SDS, LC-MS

B1: TRIM56, endogenous (enzyme, UniProt Q9BRZ2 1-755)
chain: MVSHGSSPSLLEALSSDFLACKICLEQLRAPKTLPCLHTYCQDCLAQLADGGRVRCPECRETVPVPPEGVASFKTNFFVNGLLDLVKARACGDLRAGKPACALCPLVGGTSTGGPATARCLDCADDLCQACADGHRCTRQTHTHRVVDLVGYRAGWYDEEARERQAAQCPQHPGEALRFLCQPCSQLLCRECRLDPHLDHPCLPLAEAVRARRPGLEGLLAGVDNNLVELEAARRVEKEALARLREQAARVGTQVEEAAEGVLRALLAQKQEVLGQLRAHVEAAEEAARERLAELEGREQVARAAAAFARRVLSLGREAEILSLEGAIAQRLRQLQGCPWAPGPAPCLLPQLELHPGLLDKNCHLLRLSFEEQQPQKDGGKDGAGTQGGEESQSRREDEPKTERQGGVQPQAGDGAQTPKEEKAQTTREEGAQTLEEDRAQTPHEDGGPQPHRGGRPNKKKKFKGRLKSISREPSPALGPNLDGSGLLPRPIFYCSFPTRMPGDKRSPRITGLCPFGPREILVADEQNRALKRFSLNGDYKGTVPVPEGCSPCSVAALQSAVAFSASARLYLINPNGEVQWRRALSLSQASHAVAALPSGDRVAVSVAGHVEVYNMEGSLATRFIPGGKASRGLRALVFLTTSPQGHFVGSDWQQNSVVICDGLGQVVGEYKGPGLHGCQPGSVSVDKKGYIFLTLREVNKVVILDPKGSLLGDFLTAYHGLEKPRVTTMVDGRYLVVSLSNGTIHIFRVRSPDS
Q: How did the binding turn out when B1 was run?
A: binds

No constants are given. Whether binding was seen depends on the method and setting. In cells and extracts the contact can be indirect. Here binding means that the protein was enriched with, or labelled near, the bait; the list need not be complete.
